Assay results: the supplement of paper PMC11451515

Key:
Settings in all cases: 48 h
NOMO1 [1] = assay: cell viability relative to DMSO control; higher = less cytotoxic
In short: (§1)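 Three leukemia lines were tested: NOMO1 and SEM at 500 cells/well and P12-Ichikawa at 1000 cells/well. Each was adapted for at least four passages in each medium and seeded in 5 μl in 1536-well plates, and library compounds in DMSO were pin-dosed from 47 μM to 0.79 nM in 11 threefold steps. After 48 h at 37°C, CellTiter-Glo One luminescence was read. Viability is a percentage relative to DMSO wells on each plate, with cell-free wells as background.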

P12-Ichikawa [2] = assay: as above
In short: as §1

SEM cells [3] = assay: as above
In short: as §1

NOMO1 [4] = assay: AUC of viability dose-response curve (% viability x log10 dose units); higher = less sensitive
In short: (§2)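 Viability of medium-adapted leukemia cells was measured by CellTiter-Glo One luminescence after 48 h at 37°C with library compounds in DMSO. Doses were 11 threefold steps from 47 μM to 0.79 nM, in 1536-well plates at 500 or 1000 cells/well. Signals were normalised per plate to DMSO and cell-free wells and fitted with a four-parameter log-logistic model on log10 dose. Area under the curve was integrated by trapezoidal rule, with curves exceeding full viability scaled and failed quality-control curves removed.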

P12-Ichikawa [5] = assay: as above
In short: as §2

SEM cells [6] = assay: as above
In short: as §2

Cc1cnc(C(=O)NCCc2ccc([S+](=O)([O-])NC(=O)NC3CCCCC3)cc2)cn1
cell viability [%]
Settings | NOMO1 [1] | P12-Ichikawa [2] | SEM cells [3]
HPLM + 10% dialyzed FBS, 0.000781 µM | 92.5 | 99.6 | 91.2
HPLM + 10% dialyzed FBS, 0.00234 µM | 104 | 111 | 50.5
HPLM + 10% dialyzed FBS, 0.00702 µM | 106 | 107 | 94.2
HPLM + 10% dialyzed FBS, 0.0211 µM | 117 | 101 | 101
HPLM + 10% dialyzed FBS, 0.0632 µM | 121 | 109 | 98.6
HPLM + 10% dialyzed FBS, 0.19 µM | 112 | 103 | 106
HPLM + 10% dialyzed FBS, 0.569 µM | 119 | 105 | 102
HPLM + 10% dialyzed FBS, 1.71 µM | 97.1 | 100 | 101
HPLM + 10% dialyzed FBS, 5.12 µM | 119 | 107 | 112
HPLM + 10% dialyzed FBS, 15.4 µM | 84.3 | 85 | 113
HPLM + 10% dialyzed FBS, 46.1 µM | 59.4 | 56.3 | 88.8
RPMI 5 mM glucose + 10% FBS, 0.000781 µM | 86.5 | 103 | 89.8
RPMI 5 mM glucose + 10% FBS, 0.00234 µM | 95.1 | 102 | 51.2
RPMI 5 mM glucose + 10% FBS, 0.00702 µM | 87.5 | 101 | 101
RPMI 5 mM glucose + 10% FBS, 0.0211 µM | 90.5 | 104 | 92.6
RPMI 5 mM glucose + 10% FBS, 0.0632 µM | 92.9 | 103 | 91
RPMI 5 mM glucose + 10% FBS, 0.19 µM | 86.3 | 108 | 94.7
RPMI 5 mM glucose + 10% FBS, 0.569 µM | 94.8 | 105 | 98.9
RPMI 5 mM glucose + 10% FBS, 1.71 µM | 96.5 | 119 | 101
RPMI 5 mM glucose + 10% FBS, 5.12 µM | 96.6 | 127 | 99.4
RPMI 5 mM glucose + 10% FBS, 15.4 µM | 87.6 | 96 | 97.1
RPMI 5 mM glucose + 10% FBS, 46.1 µM | 80.6 | 73.2 | 78.8
RPMI 5 mM glucose + 10% dialyzed FBS, 0.000781 µM | 96.6 | 90.9 | 97.7
RPMI 5 mM glucose + 10% dialyzed FBS, 0.00234 µM | 96.6 | 97.8 | 46.2
RPMI 5 mM glucose + 10% dialyzed FBS, 0.00702 µM | 103 | 100 | 90.3
RPMI 5 mM glucose + 10% dialyzed FBS, 0.0211 µM | 98.3 | 96 | 100
RPMI 5 mM glucose + 10% dialyzed FBS, 0.0632 µM | 110 | 105 | 91.3
RPMI 5 mM glucose + 10% dialyzed FBS, 0.19 µM | 107 | 105 | 96.3
RPMI 5 mM glucose + 10% dialyzed FBS, 0.569 µM | 107 | 101 | 89.3
RPMI 5 mM glucose + 10% dialyzed FBS, 1.71 µM | 100 | 110 | 97.5
RPMI 5 mM glucose + 10% dialyzed FBS, 5.12 µM | 101 | 105 | 102
RPMI 5 mM glucose + 10% dialyzed FBS, 15.4 µM | 88.9 | 93.8 | 87.4
RPMI 5 mM glucose + 10% dialyzed FBS, 46.1 µM | 77.2 | 68 | 67.7

AUC of viability dose-response curve
Settings | NOMO1 [4] | P12-Ichikawa [5] | SEM cells [6]
HPLM + 10% dialyzed FBS | 455 | 457 | 451
RPMI 5 mM glucose + 10% FBS | 434 | 464 | 435
RPMI 5 mM glucose + 10% dialyzed FBS | 464 | 466 | 422
